Source: publication PMC9582336
These are yes or no findings as the source states them, for the method shown. In cells and extracts the contact can be indirect. Binding can be weak; no strength is given. Where a sequence is shown, tags or fusion partners need not be part of it.

Molecular target: T1, CFP-tagged wild type (WT) inhibitor-2 (I-2) (UniProt P41236)
T1 sequence: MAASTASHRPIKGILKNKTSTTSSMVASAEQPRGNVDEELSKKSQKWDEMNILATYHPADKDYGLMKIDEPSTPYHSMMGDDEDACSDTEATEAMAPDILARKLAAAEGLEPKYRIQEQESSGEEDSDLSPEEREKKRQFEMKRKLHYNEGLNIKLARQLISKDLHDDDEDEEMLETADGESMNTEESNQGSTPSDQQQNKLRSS
Assay: FRET or BRET; FLIM-FRET in living HEK293 cells 2 days after co-transfection; lifetime of the CFP donor measured by two-photon excitation (850 nm) and time-correlated single photon counting, double exponential fit; a shorter CFP lifetime with a YFP-tagged partner is read as FRET; in one panel rLuc-I-2 was co-expressed as a third protein

binding: binds
Substance: YFP-PP1γ (enzyme)
